Measurements reported in PubChem BioAssay AID1259424 (University of Nebraska Medical Center, 2018).

Purpose: 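Seek colon cancer survival genes behaving like KSR1, using a six-gene signature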 (primary screen)
System: human HCT116 colon cancer cells
Reagents: siRNA pool against human genes, 50 nM
Measurement: 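Six signature mRNAs by branched-DNA multiplex assay, scaled to two housekeeping genes and non-targeting median, log2; matched to mean KSR1 knockdown profile by Pearson correlation and euclidean distance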
Scale: mean correlation with KSR1 profile and KSR1 correlation: higher = expression change more like KSR1 knockdown; mean distance from KSR1 profile: higher = expression change less like KSR1 knockdown
Here is one part, drawn at random, of about 14,000 deposited reagents. 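Higher correlation or smaller distance means closer resemblance to KSR1 loss; control wells, including KSR1 knockdowns, recur on many plates.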 The numbers tell different reagents against one gene apart. Further read-outs or replicates are left out here. Reagent sequences are not shown. Not stated in the record: the time to read-out.

| gene | reagent no. | mean correlation with KSR1 profile | mean distance from KSR1 profile | KSR1 correlation, replicate 1 |
| --- | --- | --- | --- | --- |
| CECR2 (GeneID 27443) | 1 | -0.0934 | 3.06 | -0.228 |
| DOP1A (GeneID 23033) | 1 | -0.182 | 2.16 | -0.312 |
| MIR600HG (GeneID 81571) | 1 | -0.0484 | 3.27 | -0.13 |
| PTTG1 (GeneID 9232) | 1 | 0.587 | 1.5 | 0.359 |
| KARS1 (GeneID 3735) | 1 | -0.0559 | 1.39 | -0.55 |
| VPS18 (GeneID 57617) | 1 | 0.611 | 0.725 | 0.4 |
| LZTS2 (GeneID 84445) | 1 | 0.718 | 1.49 | 0.871 |
| LRRCC1 (GeneID 85444) | 1 | 0.329 | 3.26 | 0.223 |
| KCNE5 (GeneID 23630) | 1 | -0.607 | 2 | -0.715 |
| CAMK2A (GeneID 815) | 1 | -0.0221 | 1.97 | 0.000679 |
| PKD1 (GeneID 5310) | 1 | 0.484 | 2.48 | 0.175 |
| SLC4A9 (GeneID 83697) | 1 | 0.594 | 2.73 | 0.396 |
| CD200 (GeneID 4345) | 1 | -0.757 | 1.63 | -0.237 |
| ZNF77 (GeneID 58492) | 1 | -0.158 | 4.14 | -0.423 |
| NR2F1 (GeneID 7025) | 1 | 0.384 | 1.86 | 0.562 |
| VEZF1 (GeneID 7716) | 1 | -0.567 | 2.47 | -0.498 |
| FZD5 (GeneID 7855) | 1 | 0.0889 | 2.76 | -0.0105 |
| DOC2A (GeneID 8448) | 1 | -0.177 | 3.12 | -0.0562 |
| DYNLT1 (GeneID 6993) | 1 | -0.0387 | 2.1 | -0.007 |
| LGALS3 (GeneID 3958) | 1 | -0.428 | 1.57 | 0.0437 |
| LGALS3 (GeneID 3958) | 2 | -0.152 | 1.82 | -0.235 |
| TRPM1 (GeneID 4308) | 1 | 0.218 | 1.89 | -0.025 |
| THRB (GeneID 7068) | 1 | 0.149 | 2.05 | -0.121 |
| CPLANE1 (GeneID 65250) | 1 | -0.259 | 2.3 | -0.352 |
| GRB2 (GeneID 2885) | 1 | 0.286 | 1.66 | 0.297 |
| CLASRP (GeneID 11129) | 1 | 0.174 | 2.38 | 0.195 |
| TBX2 (GeneID 6909) | 1 | 0.769 | 0.859 | 0.771 |
| JUNB (GeneID 3726) | 1 | 0.269 | 3.78 | 0.378 |
| ZNF696 (GeneID 79943) | 1 | 0.525 | 1.36 | 0.52 |
| ANO1 (GeneID 55107) | 1 | -0.186 | 0.964 | -0.4 |
| SYN1 (GeneID 6853) | 1 | -0.338 | 1.58 | -0.514 |
| COPZ2 (GeneID 51226) | 1 | -0.183 | 2.46 | -0.0521 |
| HNF4A (GeneID 3172) | 1 | 0.503 | 1.18 | 0.548 |
| RAPH1 (GeneID 65059) | 1 | -0.227 | 1.51 | -0.563 |
| PREX2 (GeneID 80243) | 1 | 0.327 | 2.77 | 0.119 |
| EVI2A (GeneID 2123) | 1 | 0.236 | 1.71 | 0.453 |
| MRPS30 (GeneID 10884) | 1 | 0.302 | 2.71 | 0.248 |
| FKBP15 (GeneID 23307) | 1 | -0.415 | 1.92 | -0.313 |
| PRDM2 (GeneID 7799) | 1 | 0.209 | 1.73 | 0.564 |
| OSBP2 (GeneID 23762) | 1 | -0.273 | 2.63 | 0.0869 |
| MCRIP2 (GeneID 84331) | 1 | 0.516 | 1.57 | 0.347 |
| GATA5 (GeneID 140628) | 1 | 0.398 | 1.46 | 0.544 |
| SLC35A1 (GeneID 10559) | 1 | -0.0795 | 2.37 | 0.104 |
| SAMD4B (GeneID 55095) | 1 | 0.116 | 2.17 | -0.0233 |
| RC3H2 (GeneID 54542) | 1 | -0.185 | 1.67 | -0.306 |
| TRANK1 (GeneID 9881) | 1 | 0.16 | 1.76 | 0.342 |
| PER1 (GeneID 5187) | 1 | -0.0626 | 3.75 | 0.0242 |
| S100A2 (GeneID 6273) | 1 | 0.496 | 2.08 | 0.377 |
| H4C14 (GeneID 8370) | 1 | -0.315 | 2.66 | -0.355 |
| PAX8 (GeneID 7849) | 1 | -0.191 | 4 | -0.0454 |
